Measured data: PubChem BioAssay AID1259405 (NCATS, 2018)

Test: 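Knock-downs that lift recombinant protein yield in hamster ovary cells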 (primary screen)
System: Chinese hamster CHO-K1 ovary cells with stable secreted eGFP expression
Reagent: single siRNA against mouse genes, 0.8 pmol siRNA per well (2 µl of 400 nM stock)
Time to read-out: 3 days
Measured: 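Percent of the per-plate non-targeting control median for intracellular GFP per well by laser scanning cytometry and for cell viability by ATP luminescence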
Scale: GFP, % of control: higher = more GFP per well, higher productivity; viability (ATP), % of control: higher = more viable cells (more ATP)
Active means: 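Called active when intracellular GFP, relative to negative control, is at or above 120%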
Shown is one part, drawn at random, of about 50,000 reagents. In the full data, about 4,000 (8%) were called active. 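Mouse siRNA library applied to hamster cells; one well for each siRNA.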 Reagent sequences are not shown.

Chrm5 [SID363571240]: GFP, % of control = 93.1; viability (ATP), % of control = 76.5; call = inactive
Chrm5 [SID363571592]: GFP, % of control = 71.3; viability (ATP), % of control = 60.3; call = inactive
Chrm5 [SID363571944]: GFP, % of control = 66.8; viability (ATP), % of control = 50.9; call = inactive
Or5b95 [SID363544394]: GFP, % of control = 47; viability (ATP), % of control = 27.6; call = inactive
Or5b95 [SID363550722]: GFP, % of control = 98.5; viability (ATP), % of control = 70.5; call = inactive
Or5b95 [SID363557271]: GFP, % of control = 36.3; viability (ATP), % of control = 45; call = inactive
Tmem169 [SID363542747]: GFP, % of control = 37.5; viability (ATP), % of control = 64.8; call = inactive
Tmem169 [SID363546264]: GFP, % of control = 58.3; viability (ATP), % of control = 58.8; call = inactive
Tmem169 [SID363548020]: GFP, % of control = 90.2; viability (ATP), % of control = 81; call = inactive
Dph6 [SID363552457]: GFP, % of control = 80.4; viability (ATP), % of control = 79.8; call = inactive
Dph6 [SID363585593]: GFP, % of control = 82.7; viability (ATP), % of control = 65.1; call = inactive
Dph6 [SID363585944]: GFP, % of control = 80; viability (ATP), % of control = 96.1; call = inactive
Or14a257 [SID363544538]: GFP, % of control = 87.2; viability (ATP), % of control = 104; call = inactive
Or14a257 [SID363550866]: GFP, % of control = 86.9; viability (ATP), % of control = 43.2; call = inactive
Or14a257 [SID363557415]: GFP, % of control = 78.9; viability (ATP), % of control = 59; call = inactive
Vmn1r226 [SID363544935]: GFP, % of control = 60.3; viability (ATP), % of control = 47.1; call = inactive
Vmn1r226 [SID363551263]: GFP, % of control = 57.2; viability (ATP), % of control = 73.1; call = inactive
Vmn1r226 [SID363557812]: GFP, % of control = 79.1; viability (ATP), % of control = 57.8; call = inactive
Hdac4 [SID363584499]: GFP, % of control = 110; viability (ATP), % of control = 82.1; call = inactive
Hdac4 [SID363589529]: GFP, % of control = 119; viability (ATP), % of control = 120; call = inactive
Echdc2 [SID363575284]: GFP, % of control = 136; viability (ATP), % of control = 101; call = active
Echdc2 [SID363580916]: GFP, % of control = 59.2; viability (ATP), % of control = 56.6; call = inactive
Echdc2 [SID363583028]: GFP, % of control = 69; viability (ATP), % of control = 48.6; call = inactive
Lrrc28 [SID363540281]: GFP, % of control = 75; viability (ATP), % of control = 85.4; call = inactive
Lrrc28 [SID363542033]: GFP, % of control = 81.6; viability (ATP), % of control = 83.9; call = inactive
Lrrc28 [SID363566949]: GFP, % of control = 83.1; viability (ATP), % of control = 77.9; call = inactive
Lrrc58 [SID363550193]: GFP, % of control = 83; viability (ATP), % of control = 109; call = inactive
Lrrc58 [SID363564702]: GFP, % of control = 59.3; viability (ATP), % of control = 77.4; call = inactive
Lrrc58 [SID363588247]: GFP, % of control = 131; viability (ATP), % of control = 111; call = active

3 consecutive reagents from above:
Lrrc58 [SID363550193]: GFP, % of control = 83; viability (ATP), % of control = 109; call = inactive
Lrrc58 [SID363564702]: GFP, % of control = 59.3; viability (ATP), % of control = 77.4; call = inactive
Lrrc58 [SID363588247]: GFP, % of control = 131; viability (ATP), % of control = 111; call = active
